These are yes or no findings as the source states them, for the method shown. Some binding calls cover weakened binding; strength is not graded here.
Biological target: human LPAM-1-Fc (alpha4-Fc/beta7-Fc heterodimer) (human)
Test: SPR (BIACORE) as in Example 12, polypeptide purified from E. coli as analyte on captured LPAM-1-Fc; KD drawn as bars (Example 20)

B1: R1R3R5 (ligand)
2D-VCAM-1 variant polypeptide: MFKIETTPESRYLAQIGDSVSLTCSTTGCESPFFFWRTLIDSPLNGKVTNEGTTSTLTMNPVSFGNEHSYLCTARCESRSLEKGIQVEIYSFPKDPEIHLSGPLEAGKPITVKCSVADVYPFDRLEIDLLKGDHLMKSQEFLEDADRKSLETKSLEVTFTPVIEDIGKVLVCRAKLHIDEMDSVPTVRQAVKELQVYISP
binding: binds

— US20120135912A1 (PERSEID THERAPEUTICS, published 2012)
